Test results as given in patent US9463195B2, “Dissolution of amyloid fibrils by flavonoids and other compounds” (The Regents of the University of California, priority 2006, dated 2016).

Target: preformed human β-2 microglobulin fibrils (Homo sapiens, UniProt P61769)
Experiment: Thioflavin T fluorescence high-throughput screen (slope assay score) for disruption of preformed fibrils
Assay type: biochemical
Procedure: As used herein, “slope assay score” means the slope of the relative fluorescence of thioflavin T versus time curve for a given compound in a thioflavin T fluorescence assay. A negative slope signifies a decrease in thioflavin T fluorescence over time.
The human β-2 microglobulin fibrils were prepared in vitro at 0.1 mg/mL protein in 25 mM phosphate, pH 2, 0.2 M NaCl without agitation for 1 week at 37° C., in the same manner as Ivanova et al. See Ivanova et al. (Proc Natl Acad Sci U.S.A. 2004 Jul. 20; 101(29):10584-9).
In our experiments, disruption of the fibrillar structure of preformed β-2 microglobulin fibrils was monitored by fluorescence. […] Thioflavin T binds specifically to human β-2 microglobulin fibrils, causing a red shift in the fluorescence excitation spectra of the dye to produce a peak in the fluorescence emission spectrum at 482 nm when the excitation wavelength is set at 444 nm. […]
In the fluorescence assay used here, preformed human β-2 microglobulin fibrils were mixed with a solution of 5 μM ThT in 50 mM glycine, pH 8.6 in a 3:14 ratio (final concentrations: 4.1 μM ThT, 41.2 mM glycine, 0.018 mg/mL β-2 microglobulin, 35 mM NaCl and 4.4 mM phosphate). Fluorescence was measured immediately after mixing (excitation wavelength set at 444 nm, emission wavelengths at 482, 490, and 502 nm) with a Molecular Devices FlexStation II. […]

`CN(C)CCOC(c1ccccc1)c1ccccc1.Cn1c(=O)c2[nH]c(Cl)nc2n(C)c1=O` [dimenhydrinate] was tested, and the “effective in the fluorescence assay at disrupting β-2 microglobulin fibers” value was “effective”.
